Some of the results follow. Small differences around the control level are noise.

Chains of the proteins cited; added tags and fusions are not shown. Lines headed by an entry give the natural chain unless they say otherwise; changes in a name come on top.
UniProt Q6PH81: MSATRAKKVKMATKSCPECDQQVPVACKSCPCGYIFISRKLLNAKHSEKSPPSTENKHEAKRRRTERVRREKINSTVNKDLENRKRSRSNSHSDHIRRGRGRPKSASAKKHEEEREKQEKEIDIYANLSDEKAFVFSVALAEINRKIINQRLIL
UniProt Q6IE81, whole entry: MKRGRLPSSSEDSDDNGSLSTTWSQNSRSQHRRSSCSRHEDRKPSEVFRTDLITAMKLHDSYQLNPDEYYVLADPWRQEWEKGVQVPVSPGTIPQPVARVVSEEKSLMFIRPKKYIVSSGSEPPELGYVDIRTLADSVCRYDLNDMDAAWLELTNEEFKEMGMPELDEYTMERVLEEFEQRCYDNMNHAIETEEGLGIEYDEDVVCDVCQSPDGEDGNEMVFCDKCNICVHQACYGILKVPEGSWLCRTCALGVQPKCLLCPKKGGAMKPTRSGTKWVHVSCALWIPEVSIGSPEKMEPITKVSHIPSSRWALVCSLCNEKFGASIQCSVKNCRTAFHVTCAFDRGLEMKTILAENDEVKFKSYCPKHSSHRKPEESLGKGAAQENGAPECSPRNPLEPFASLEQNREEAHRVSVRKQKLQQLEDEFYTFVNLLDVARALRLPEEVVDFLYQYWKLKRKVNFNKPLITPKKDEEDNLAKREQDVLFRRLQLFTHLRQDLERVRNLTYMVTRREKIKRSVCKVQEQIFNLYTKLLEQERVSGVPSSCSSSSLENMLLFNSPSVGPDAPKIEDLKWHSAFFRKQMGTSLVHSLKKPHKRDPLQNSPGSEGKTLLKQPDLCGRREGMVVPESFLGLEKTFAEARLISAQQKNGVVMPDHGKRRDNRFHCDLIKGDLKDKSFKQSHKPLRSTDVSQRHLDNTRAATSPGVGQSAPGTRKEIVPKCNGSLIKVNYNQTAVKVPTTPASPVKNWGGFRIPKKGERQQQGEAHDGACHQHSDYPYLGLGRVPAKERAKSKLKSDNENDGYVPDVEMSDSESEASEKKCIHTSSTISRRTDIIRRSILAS
UniProt Q68CZ6: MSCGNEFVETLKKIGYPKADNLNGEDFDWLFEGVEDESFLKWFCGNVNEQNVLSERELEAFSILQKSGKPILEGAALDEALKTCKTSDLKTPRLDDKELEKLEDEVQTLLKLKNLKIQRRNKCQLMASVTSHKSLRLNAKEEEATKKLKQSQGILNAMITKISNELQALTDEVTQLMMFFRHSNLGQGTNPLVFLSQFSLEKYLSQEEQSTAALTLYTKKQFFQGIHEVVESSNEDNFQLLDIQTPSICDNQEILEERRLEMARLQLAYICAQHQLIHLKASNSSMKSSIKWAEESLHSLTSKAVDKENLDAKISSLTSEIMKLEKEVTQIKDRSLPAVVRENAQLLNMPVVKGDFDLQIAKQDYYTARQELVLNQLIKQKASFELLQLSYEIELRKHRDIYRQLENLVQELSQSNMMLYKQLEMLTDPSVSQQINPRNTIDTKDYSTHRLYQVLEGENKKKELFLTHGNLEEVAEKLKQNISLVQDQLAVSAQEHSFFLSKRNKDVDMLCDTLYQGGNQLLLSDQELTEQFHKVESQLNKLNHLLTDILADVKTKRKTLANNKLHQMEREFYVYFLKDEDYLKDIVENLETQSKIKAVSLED
UniProt Q6Q0C0: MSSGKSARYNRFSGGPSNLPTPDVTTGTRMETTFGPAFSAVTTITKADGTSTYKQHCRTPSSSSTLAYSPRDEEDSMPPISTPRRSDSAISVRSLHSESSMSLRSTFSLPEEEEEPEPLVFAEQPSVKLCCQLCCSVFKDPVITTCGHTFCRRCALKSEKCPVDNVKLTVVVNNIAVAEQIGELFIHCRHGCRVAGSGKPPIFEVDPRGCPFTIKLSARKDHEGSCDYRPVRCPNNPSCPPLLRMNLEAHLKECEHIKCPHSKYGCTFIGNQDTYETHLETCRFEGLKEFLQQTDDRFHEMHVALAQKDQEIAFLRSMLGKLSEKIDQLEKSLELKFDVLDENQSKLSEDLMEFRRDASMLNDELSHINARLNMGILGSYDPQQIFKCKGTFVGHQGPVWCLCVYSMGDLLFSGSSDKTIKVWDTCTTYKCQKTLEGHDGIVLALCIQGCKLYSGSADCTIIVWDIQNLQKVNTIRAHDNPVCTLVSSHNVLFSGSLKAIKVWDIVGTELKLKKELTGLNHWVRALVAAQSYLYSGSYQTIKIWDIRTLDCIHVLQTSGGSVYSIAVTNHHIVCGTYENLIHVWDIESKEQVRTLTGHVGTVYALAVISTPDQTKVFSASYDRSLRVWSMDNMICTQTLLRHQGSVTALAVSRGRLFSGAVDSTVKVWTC
UniProt Q6IQ22: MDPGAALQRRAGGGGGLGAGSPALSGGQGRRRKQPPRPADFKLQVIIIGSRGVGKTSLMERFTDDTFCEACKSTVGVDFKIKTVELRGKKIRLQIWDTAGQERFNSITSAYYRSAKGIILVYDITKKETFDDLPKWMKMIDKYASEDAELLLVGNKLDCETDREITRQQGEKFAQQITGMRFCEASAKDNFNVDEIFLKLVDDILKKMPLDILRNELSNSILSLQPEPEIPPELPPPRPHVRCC
UniProt Q6NZ67, whole entry: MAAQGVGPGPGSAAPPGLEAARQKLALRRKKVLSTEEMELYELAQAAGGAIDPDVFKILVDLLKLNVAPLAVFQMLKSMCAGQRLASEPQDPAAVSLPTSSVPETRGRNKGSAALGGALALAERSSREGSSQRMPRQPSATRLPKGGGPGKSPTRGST
UniProt Q6DD88: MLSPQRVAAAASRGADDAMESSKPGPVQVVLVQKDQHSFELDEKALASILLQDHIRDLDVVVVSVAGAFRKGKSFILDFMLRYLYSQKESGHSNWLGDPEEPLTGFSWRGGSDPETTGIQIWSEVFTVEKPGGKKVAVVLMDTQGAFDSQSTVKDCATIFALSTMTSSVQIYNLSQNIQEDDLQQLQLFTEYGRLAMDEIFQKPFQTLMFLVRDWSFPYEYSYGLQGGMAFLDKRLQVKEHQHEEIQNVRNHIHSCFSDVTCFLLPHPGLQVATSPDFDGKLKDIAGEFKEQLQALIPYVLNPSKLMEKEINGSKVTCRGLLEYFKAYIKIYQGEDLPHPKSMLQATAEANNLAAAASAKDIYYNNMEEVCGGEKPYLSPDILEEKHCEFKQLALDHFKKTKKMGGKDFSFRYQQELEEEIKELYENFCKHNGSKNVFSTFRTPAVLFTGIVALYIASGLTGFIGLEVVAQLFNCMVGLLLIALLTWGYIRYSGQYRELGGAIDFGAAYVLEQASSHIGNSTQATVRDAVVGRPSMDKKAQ
UniProt Q63HK3: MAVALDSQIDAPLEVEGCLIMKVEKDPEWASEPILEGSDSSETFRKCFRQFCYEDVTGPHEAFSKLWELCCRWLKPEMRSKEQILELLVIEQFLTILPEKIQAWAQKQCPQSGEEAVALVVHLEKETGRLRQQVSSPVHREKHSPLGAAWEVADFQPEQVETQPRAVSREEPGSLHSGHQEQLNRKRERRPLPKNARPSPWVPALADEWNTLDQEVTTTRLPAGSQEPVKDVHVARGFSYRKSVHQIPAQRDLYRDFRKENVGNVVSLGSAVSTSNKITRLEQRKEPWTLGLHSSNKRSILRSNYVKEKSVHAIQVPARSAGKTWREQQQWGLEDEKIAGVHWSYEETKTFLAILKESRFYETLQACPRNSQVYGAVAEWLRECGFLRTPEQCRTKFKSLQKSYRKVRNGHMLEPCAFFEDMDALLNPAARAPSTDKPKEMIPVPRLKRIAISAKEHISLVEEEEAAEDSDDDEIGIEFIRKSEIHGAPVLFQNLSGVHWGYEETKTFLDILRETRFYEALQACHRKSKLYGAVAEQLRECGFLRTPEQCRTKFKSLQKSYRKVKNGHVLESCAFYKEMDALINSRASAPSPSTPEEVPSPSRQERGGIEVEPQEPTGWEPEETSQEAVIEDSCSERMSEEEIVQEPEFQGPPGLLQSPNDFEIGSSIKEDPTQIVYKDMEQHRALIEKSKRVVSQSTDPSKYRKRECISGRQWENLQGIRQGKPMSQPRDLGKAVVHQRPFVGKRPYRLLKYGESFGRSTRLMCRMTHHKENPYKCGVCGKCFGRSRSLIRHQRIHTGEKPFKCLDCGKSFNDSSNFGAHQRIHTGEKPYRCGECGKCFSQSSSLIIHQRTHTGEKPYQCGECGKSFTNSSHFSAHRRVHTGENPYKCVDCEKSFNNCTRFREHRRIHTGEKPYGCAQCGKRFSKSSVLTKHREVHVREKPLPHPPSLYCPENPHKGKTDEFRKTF
UniProt Q6P6C2: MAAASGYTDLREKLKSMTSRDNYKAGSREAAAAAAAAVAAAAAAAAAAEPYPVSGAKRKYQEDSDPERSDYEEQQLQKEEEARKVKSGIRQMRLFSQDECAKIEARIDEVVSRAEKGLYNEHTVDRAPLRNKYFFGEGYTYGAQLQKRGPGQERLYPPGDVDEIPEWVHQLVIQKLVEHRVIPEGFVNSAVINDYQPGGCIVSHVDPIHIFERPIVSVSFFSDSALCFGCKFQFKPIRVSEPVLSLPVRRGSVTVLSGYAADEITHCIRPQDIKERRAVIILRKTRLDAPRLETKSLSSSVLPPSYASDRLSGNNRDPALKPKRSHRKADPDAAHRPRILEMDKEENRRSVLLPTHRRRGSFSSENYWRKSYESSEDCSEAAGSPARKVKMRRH
UniProt Q6WCQ1: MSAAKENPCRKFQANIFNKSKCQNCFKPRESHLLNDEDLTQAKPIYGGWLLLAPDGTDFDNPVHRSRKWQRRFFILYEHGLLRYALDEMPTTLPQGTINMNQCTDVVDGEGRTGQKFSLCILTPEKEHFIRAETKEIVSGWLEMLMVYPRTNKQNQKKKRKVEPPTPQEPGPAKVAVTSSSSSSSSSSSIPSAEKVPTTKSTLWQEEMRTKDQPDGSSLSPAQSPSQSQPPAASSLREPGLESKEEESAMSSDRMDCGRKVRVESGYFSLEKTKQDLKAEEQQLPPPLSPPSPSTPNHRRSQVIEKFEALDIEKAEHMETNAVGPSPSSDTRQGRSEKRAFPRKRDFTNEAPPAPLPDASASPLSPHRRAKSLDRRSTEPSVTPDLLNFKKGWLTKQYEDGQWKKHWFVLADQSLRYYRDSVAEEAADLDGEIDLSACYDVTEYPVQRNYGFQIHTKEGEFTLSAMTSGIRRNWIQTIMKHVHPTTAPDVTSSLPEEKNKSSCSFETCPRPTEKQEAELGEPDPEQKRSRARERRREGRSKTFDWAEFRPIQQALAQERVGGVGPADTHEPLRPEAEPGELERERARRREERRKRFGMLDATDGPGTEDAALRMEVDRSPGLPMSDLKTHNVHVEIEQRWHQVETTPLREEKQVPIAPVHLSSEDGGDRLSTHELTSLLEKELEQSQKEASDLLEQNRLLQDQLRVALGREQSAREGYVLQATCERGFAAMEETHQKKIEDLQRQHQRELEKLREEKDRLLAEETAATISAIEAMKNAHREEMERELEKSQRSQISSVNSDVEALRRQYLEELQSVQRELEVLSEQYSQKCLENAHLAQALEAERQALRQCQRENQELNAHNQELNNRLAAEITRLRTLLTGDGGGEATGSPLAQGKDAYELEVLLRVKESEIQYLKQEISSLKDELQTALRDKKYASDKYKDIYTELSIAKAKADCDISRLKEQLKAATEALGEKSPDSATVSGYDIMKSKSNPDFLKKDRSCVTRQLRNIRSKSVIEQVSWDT
UniProt Q68EM7: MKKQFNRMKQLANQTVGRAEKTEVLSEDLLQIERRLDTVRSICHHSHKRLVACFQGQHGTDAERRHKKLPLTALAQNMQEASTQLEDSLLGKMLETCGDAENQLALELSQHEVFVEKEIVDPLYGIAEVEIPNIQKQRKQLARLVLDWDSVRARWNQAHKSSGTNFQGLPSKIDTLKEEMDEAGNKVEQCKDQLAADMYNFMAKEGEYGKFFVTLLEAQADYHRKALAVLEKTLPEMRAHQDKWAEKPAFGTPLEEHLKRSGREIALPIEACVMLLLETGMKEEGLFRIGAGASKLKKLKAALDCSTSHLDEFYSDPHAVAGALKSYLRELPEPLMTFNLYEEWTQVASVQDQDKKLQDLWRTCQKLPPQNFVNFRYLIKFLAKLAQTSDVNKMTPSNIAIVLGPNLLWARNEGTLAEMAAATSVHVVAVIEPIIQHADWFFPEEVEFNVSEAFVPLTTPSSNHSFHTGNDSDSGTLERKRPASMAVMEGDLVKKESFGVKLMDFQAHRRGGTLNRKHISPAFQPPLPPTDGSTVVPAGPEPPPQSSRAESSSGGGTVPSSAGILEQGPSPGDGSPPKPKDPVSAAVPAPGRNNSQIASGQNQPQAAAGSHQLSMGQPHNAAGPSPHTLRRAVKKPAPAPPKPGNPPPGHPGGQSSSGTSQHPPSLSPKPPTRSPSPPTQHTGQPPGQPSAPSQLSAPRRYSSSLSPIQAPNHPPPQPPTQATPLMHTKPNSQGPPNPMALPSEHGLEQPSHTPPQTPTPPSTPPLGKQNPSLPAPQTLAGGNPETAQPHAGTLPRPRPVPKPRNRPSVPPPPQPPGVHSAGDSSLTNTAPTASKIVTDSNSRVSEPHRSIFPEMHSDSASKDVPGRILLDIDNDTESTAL

Compound in this assay: CN[C@@H]1C[C@H]2O[C@@](C)([C@@H]1OC)n1c3ccccc3c3c4c(c5c6ccccc6n2c5c31)C(=O)NC4 [staurosporine]
Nature of the assay: log2 fold change of tryptic peptide abundance, ligand vs vehicle (limited proteolysis) (log2 ratio); higher = more trypsin-susceptible (destabilized). The note with it: ligand concentration: 20 uM; sample: K562 cleared lysate; digestion: 4 min, 22 C (HT-PELSA RT4min, Orbitrap Astral).
For the target “RICTOR (peptide sequence: DVLFTDTITMK, peptide start residue: 1357) (UniProt Q6R327)”, the log2 fold change was determined as 0.343.

“C16orf87 (peptide sequence: SPPSTENKHEAK, peptide start residue: 50) (UniProt Q6PH81)”: the log2 fold change is 0.285.

Take “UniProt Q6IE81 (peptide sequence: VLEEFEQR, peptide start residue: 174)”: the log2 fold change is 0.119.

For “UniProt Q68CZ6 (peptide sequence: EVTQIKDR, peptide start residue: 327)”, the log2 fold change was determined as 0.52.

Consider “INTS5 (peptide sequence: MFHDSLAGGSGGR, peptide start residue: 316) (UniProt Q6P9B9)”, for which the log2 fold change came to 0.12. On to “TRAF7 (peptide sequence: DASMLNDELSHINAR, peptide start residue: 357) (UniProt Q6Q0C0)”, for which the log2 fold change is -0.08.

Regarding “ZFYVE26 (peptide sequence: YSEIQQLLK, peptide start residue: 2419) (UniProt Q68DK2)”, the log2 fold change is -0.551. In the case of “MED27 (peptide sequence: LQYHAGLASGLLNQQSLKR, peptide start residue: 117) (UniProt Q6P2C8)” it was 0.162; in that of “TRMT10B (peptide sequence: LCIDLSMTHYMSK, peptide start residue: 127) (UniProt Q6PF06)”, 0.77; in that of “RAB12 (peptide sequence: AGGGGGLGAGSPALSGGQGR, peptide start residue: 11) (UniProt Q6IQ22)”, -0.221. In the case of “MZT2B (peptide sequence: GSAALGGALALAER, peptide start residue: 111) (UniProt Q6NZ67)” it was -0.127; in that of “ZNF562 (peptide sequence: RIHTGEKPYECVECGK, peptide start residue: 392) (UniProt Q6V9R5)”, 1.02. Take “ZSCAN25 (peptide sequence: NANLAVHR, peptide start residue: 470) (UniProt Q6NSZ9)”: the log2 fold change was 0.594. For the target “MBNL2 (peptide sequence: ALNVAPVRDTK, peptide start residue: 2) (UniProt Q5VZF2)”, the log2 fold change is -0.197. Under “SLC27A4 (peptide sequence: ILSFVYPIR, peptide start residue: 409) (UniProt Q6P1M0)” stands -0.231. In the case of “FAM111B (peptide sequence: CSSTFKLKSEVNK, peptide start residue: 50) (UniProt Q6SJ93)” it was 0.146; in that of “ATL3 (peptide sequence: GKSFILDFMLR, peptide start residue: 72) (UniProt Q6DD88)”, 0.561. “PPP2R2D (peptide sequence: AEGYNLKDEDGR, peptide start residue: 137) (UniProt Q66LE6)”: the log2 fold change was -0.223. In the case of “CRTC1 (peptide sequence: QAWDTKK, peptide start residue: 202) (UniProt Q6UUV9)” it was 0.389; in that of “UniProt Q63HK3 (peptide sequence: TFLDILR, peptide start residue: 507)”, -0.17; in that of “ALKBH5 (peptide sequence: ILEMDKEENRR, peptide start residue: 339) (UniProt Q6P6C2)”, -0.201.

As for “UniProt Q6NT16 (peptide sequence: SQNILSTEEER, peptide start residue: 438)”, the log2 fold change is -0.135.

For the target “PDXDC1 (peptide sequence: LPGQKPFK, peptide start residue: 701) (UniProt Q6P996)”, the log2 fold change came out at 0.495. In the case of “SLC30A6 (peptide sequence: TGFTNIPSR, peptide start residue: 441) (UniProt Q6NXT4)” it was -0.259.

On to “MPRIP (peptide sequence: EASDLLEQNR, peptide start residue: 689) (UniProt Q6WCQ1)”, for which the log2 fold change is -0.422. In the case of “LARP2 (peptide sequence: HKWVPLHLDVVR, peptide start residue: 76) (UniProt Q659C4)”, the log2 fold change is -0.675. In the case of “ARHGAP17 (peptide sequence: WAEKPAFGTPLEEHLKR, peptide start residue: 244) (UniProt Q68EM7)” it was 0.452; in that of “RANBP10 (peptide sequence: ELQALSEQLGR, peptide start residue: 517) (UniProt Q6VN20)”, -0.418.

Source of the values: the supplement of paper PMC12819154, “High-throughput peptide-centric local stability assay extends protein–ligand identification to membrane proteins, tissues and bacteria” (Nature Structural & Molecular Biology, 2025).
